Assay type in all cases: in vivo
Series [1] has as its system timothy-grass (Phleum pratense). Description: uptake of PFAS by timothy-grass shoots grown in biosolids-amended soil treated by a sorbent or SDS. The settings on record: for uptake of individual PFAS by shoots from soil: biosolids amended soil treated by SDS, after two cuts; for concentration of PFAS in timothy-grass shoots: Day-40; for detection of PFAS in timothy-grass shoots: Day-40 and Day-80. An excerpt:
The method uses the addition of a mobilizing reagent, at a predetermined dose as described herein, to amend the soil around a root system of one or more plants. The supplementing of the amended soil with a stabilizing reagent at a predetermined dose, as also defined below. In one embodiment, the preparation of biosolids amended soil uses a sandy loam soil used in this study (pH=7.56), which was collected from a local farm in Albany County, New York. The soil was passed through a 2-mm sieve before use. The contents of natural organic matter and total organic carbon of the sieved soil were 4.82±0.12% and 2.44±0.45%, respectively. The sieved soil was mixed with vermiculite in a 1:1 vol ratio for increasing water retention of the soil and improving soil aeration. Then, the processed soil for plant cultivation was distributed to 7-quart polypropylene containers (14.375″L×8.25″W×6″H). Each container had 1.3 kg of dry soil.
The biosolids after anaerobic digestion of sludge were collected from a nearby wastewater treatment plant close to University at Albany. The total solid and total organic carbon of the biosolids were 24.16±0.21% and 28.64±0.28%, respectively. Ten PFAS, including perfluorobutanesulfonic acid (PFBS), perfluorohexanoic acid (PFHxA), undecafluoro-2-methyl-3-oxahexanoic acid (GenX), perfluoroheptanoic acid (PFHpA), perfluorohexane sulfonate (PFHxS), perfluorooctanoic acid (PFOA), perfluorononanoic acid (PFNA), perfluorooctanesulfonic acid (PFOS), perfluorodecanoic acid (PFDA), and perfluoroundecanoic acid (PFUnA), were added to and homogenized with the biosolids, reaching the target concentration of each PFAS at 300 μg/kg dry biosolids. The mixture was then stored at 4° C. for 7 days. Afterwards, the PFAS spiked biosolids were homogenized with one sorbent (biochar, GAC, or RemBind) at 0.2 or 2 wet wt. % or a surfactant, SDS, at 10, 50 or 100 mg/kg. The biochar (Biochar Supreme, LLC, Everson, WA) was derived from forest wood waste and contained over 85% of organic carbon with a specific surface area of ˜800 m2/g. The size of the GAC (Alfa Aesar, Ward Hill, MA) ranged from 425 μm to 850 μm with a specific surface area of ˜650 m2/g. The porosity and density of the GAC were around 0.78 and 2.26 g/cm3, respectively. RemBind was gifted from AquaBlok Ltd as a distributor for RemBind® (Australia). After aging for 7 days, the biosolids with a sorbent or a surfactant were thoroughly mixed with the prepared soil at a ratio of 0.17 kg biosolids/kg of dry soil. This ratio is equivalent to 5 dry ton biosolids/acre of soil recommended by US EPA for biosolids land application. Based upon the TS of the biosolids and the spiked PFAS concentrations, there were 55.56 g of dry biosolids and 16.67 μg of each spiked PFAS in each container with 1.3 kg of dry soil.
Two sets of controls were set up as well: (1) soil amended with the original biosolids without PFAS spiking, sorbents, or surfactants (non-spiked control); (2) soil amended with PFAS spiked biosolids without any sorbents or surfactants (spiked control). Three replicates were prepared for each control and treatment.
Timothy-grass seeds were purchased from OrOlam LLC (South Miami, FL). One gram of seeds was sown evenly in each tank containing the prepared biosolids amended soil. Enough water was then added to each tank to reach 100% of field capacity. The plants were cultivated in a greenhouse and watered every day. The timothy-grass started germinating on the 5th day after sowing. On Day-40 after seed germination, the above-ground shoots of the grass in each tank were cut and rinsed thoroughly using deionized water. Around 1 g of the plant tissues from each treatment was used for chlorophyll extraction and quantification. The remaining plant shoots were freeze-dried at −37° C. for 48 h and subject to PFAS extraction and analysis. The plants after cutting were kept under the same growth condition. […]

The subject of series [2] is soybean (Glycine max (L.) Merr. cv. Tohya). In words: PFAS accumulation in seeds of first-generation soybean plants. As to conditions: for PFAS concentration in seeds of first-generation soybean plants: 94 days of exposure to PFAS mixture at 100 μg/kg; for PFAS accumulation in the plant seeds: exposure to individual PFOA or PFOS at 10 or 100 μg/kg, Day-94.
Series [3] has the same test system. In words: PFAS uptake by shoots and roots of first- and second-generation soybean plants (concentrations, RCF, BCF, TF). As to conditions: Day-41.
For series [4] the test system is unchanged. In words: PFAS removal from soil by first- and second-generation soybean plants. The settings on record: Day-41.
Where [5] appears, read: spiked control (PFAS 300 μg/kg in biosolids, no sorbent or surfactant).
The mark [6] stands for this setting: biosolids-amended soil treated by SDS.
The mark [7] stands for this setting: biosolids-amended soil treated by different sorbents.
Setting [8] is: non-spiked control (biosolids without PFAS addition).
[9] abbreviates: individual PFAS only at 10 μg/kg.
Where [10] appears, read: individual PFAS only at 100 μg/kg.

“And” between values parts separate entries of the source, which are not always exact repeats. Identical values can stand only once.

The text below walks through data of US20240368049A1, “ENHANCED PHYTOREMEDIATION FROM BIOAVAILABILITY OF PER- AND POLYFLUOROALKYL SUBSTANCES IN CONTAMINATED SOIL” (The Research Foundation for the State University of New York, priority 2023, published 2024).

Consider `O=C(O)C(F)(OC(F)(F)C(F)(F)C(F)(F)F)C(F)(F)F` (stereo not shown) [GenX, undecafluoro-2-methyl-3-oxahexanoic acid], for which the “uptake of individual PFAS by shoots from soil” value (“uptake of individual PFAS” for short) in series [1] came out at 9.91±0.49%. Besides, in series [2], the “PFAS concentration in seeds of first-generation soybean plants” value (shortened to “PFAS concentration in seeds”) came to 0 µg/kg.

Regarding `O=C(O)C(F)(F)C(F)(F)C(F)(F)F` [PFBA, perfluorobutanoic acid], the “PFAS concentration in seeds” value in series [2] came out at 12.20 ± 11.44 µg/kg.

Turning to `O=S(=O)(O)C(F)(F)C(F)(F)C(F)(F)C(F)(F)F` [PFBS, perfluorobutanesulfonic acid], in series [1], the “uptake of individual PFAS” value is given as 11.46±2.72%. Besides, the “concentration of PFAS in timothy-grass shoots” value (shortened to “concentration of PFAS”) in series [1] (setting [5]) was found to be 23.61 ± 1.90 µg/kg. For the same molecule, the “PFAS concentration in seeds” value in series [2] was 3.24 ± 2.06 µg/kg and 3.25 ± 2.05 µg/kg.

For the molecule `O=C(O)C(F)(F)C(F)(F)C(F)(F)C(F)(F)C(F)(F)C(F)(F)C(F)(F)C(F)(F)C(F)(F)F` [PFDA, perfluorodecanoic acid], the “uptake of individual PFAS” value in series [1] worked out at 0%. Besides, the “detection of PFAS in timothy-grass shoots” value in series [1] (setting [6]) and in series [1] (setting [7]) was “not detected” throughout.

Turning to `O=C(O)C(F)(F)C(F)(F)C(F)(F)C(F)(F)C(F)(F)C(F)(F)F` [PFHpA, perfluoroheptanoic acid], in series [1], the “uptake of individual PFAS” value turned out to be 18.66±2.47%. For the same molecule, the “concentration of PFAS” value in series [1] (setting [8]) came to 1.96 ± 0.29 µg/kg; in series [1] (setting [5]), 90.66 ± 6.74 µg/kg. The “PFAS concentration in seeds” value in series [2] was 0 µg/kg.

As to `O=C(O)C(F)(F)C(F)(F)C(F)(F)C(F)(F)C(F)(F)F` [PFHxA, perfluorohexanoic acid], the “uptake of individual PFAS” value in series [1] is recorded as 46.94±6.37%. The entries for the “concentration of PFAS” value in series [1] (setting [8]) and in series [1] (setting [5]) were 24.70 ± 1.46 µg/kg and 217.23 ± 16.95 µg/kg, respectively. Also, the “PFAS concentration in seeds” value in series [2] is 55.66 ± 42.06 µg/kg.

As for `O=S(=O)(O)C(F)(F)C(F)(F)C(F)(F)C(F)(F)C(F)(F)C(F)(F)F` [PFHxS, perfluorohexane sulfonate], in series [1], the “uptake of individual PFAS” value is listed as 3.45±0.45%. Further, the “concentration of PFAS” value in series [1] (setting [5]) was 17.61 ± 0.88 µg/kg. For the same molecule, the “PFAS concentration in seeds” value in series [2] amounted to 0 µg/kg.

In the case of `O=C(O)C(F)(F)C(F)(F)C(F)(F)C(F)(F)C(F)(F)C(F)(F)C(F)(F)C(F)(F)F` [PFNA, perfluorononanoic acid], in series [1], the “uptake of individual PFAS” value is 0.52±0.06%. Also, the “concentration of PFAS” value in series [1] (setting [5]) was 1.79 ± 0.44 µg/kg.

As for `O=C(O)C(F)(F)C(F)(F)C(F)(F)C(F)(F)C(F)(F)C(F)(F)C(F)(F)F` [PFOA, perfluorooctanoic acid], in series [1], the “uptake of individual PFAS” value was 3.79±0.46%. In addition, the “concentration of PFAS” value came to 3.89 ± 2.90 µg/kg in series [1] (setting [8]) and 21.73 ± 0.59 µg/kg in series [1] (setting [5]). In series [2], the “PFAS concentration in seeds” value was 0 µg/kg. Besides, the “PFAS accumulation in the plant seeds” value in series [2] was “did not lead to any PFAS accumulation”. Also, the “increase of concentration in second-generation soybean shoots compared to first-generation” value in series [3] (setting [9]) is on record as 9,452.55%; in series [3] (setting [10]), 740.76%. Also, the “increase of removal by second-generation compared to first-generation soybean plants” value in series [4] (individual PFAS at 10 μg/kg) is recorded as 1,748.65%; in series [4] (individual PFAS at 100 μg/kg), 39.02%.

As to `O=S(=O)(O)C(F)(F)C(F)(F)C(F)(F)C(F)(F)C(F)(F)C(F)(F)C(F)(F)C(F)(F)F` [PFOS, perfluorooctanesulfonic acid], the “uptake of individual PFAS” value in series [1] is 0.21±0.04%. Further, the entries for the “concentration of PFAS” value in series [1] (setting [8]) and in series [1] (setting [5]) were 0.70 ± 0.05 µg/kg and 1.88 ± 0.19 µg/kg, respectively. The “PFAS concentration in seeds” value in series [2] amounted to 0 µg/kg. Further, the “PFAS accumulation in the plant seeds” value in series [2] is on record as “did not lead to any PFAS accumulation”. Besides, the “decrease of concentration in second-generation soybean shoots compared to first-generation” value in series [3] (setting [9]) turned out to be 55.77%; in series [3] (setting [10]), 84.83%. Moreover, the “decrease of removal percentage by second-generation compared to first-generation soybean plants” value in series [4] (individual PFAS at 10 μg/kg) is on record as 71.13%; in series [4] (individual PFAS at 100 μg/kg), 88.77%.

Take `O=C(O)C(F)(F)C(F)(F)C(F)(F)C(F)(F)C(F)(F)C(F)(F)C(F)(F)C(F)(F)C(F)(F)C(F)(F)F` [PFUnA, perfluoroundecanoic acid]: in series [1], the “uptake of individual PFAS” value amounted to 0%. Moreover, the “detection of PFAS in timothy-grass shoots” value in series [1] (setting [6]) and in series [1] (setting [7]) was “not detected” in each case.

Regarding `CCCCCCCCCCCCOS(=O)(=O)[O-].[Na+]` [SDS, sodium dodecyl sulphate], the entries for the “total removal of ΣPFAS by timothy-grass shoots after two cuts” value in series [1] (SDS at 10 mg/kg), in series [1] (SDS at 50 mg/kg) and in series [1] (SDS at 100 mg/kg) were 8.90±1.49%, 7.24±0.41% and 9.16±0.95%, respectively.
